Source: publication PMC4361392

Amino acid sequences for entries named in this document (tags omitted). A change or cut given only in a name is not applied to a line headed by its entry.
UniProt O43791: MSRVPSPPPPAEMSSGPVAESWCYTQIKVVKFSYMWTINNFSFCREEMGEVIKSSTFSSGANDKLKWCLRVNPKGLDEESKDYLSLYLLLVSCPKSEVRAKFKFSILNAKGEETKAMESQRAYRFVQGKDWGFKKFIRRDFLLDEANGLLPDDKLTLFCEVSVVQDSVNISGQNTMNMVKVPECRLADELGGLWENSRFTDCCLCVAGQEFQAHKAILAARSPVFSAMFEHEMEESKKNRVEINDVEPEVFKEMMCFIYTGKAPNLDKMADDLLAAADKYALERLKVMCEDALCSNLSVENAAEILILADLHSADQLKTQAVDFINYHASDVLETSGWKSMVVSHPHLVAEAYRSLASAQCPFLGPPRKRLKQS
UniProt P10275: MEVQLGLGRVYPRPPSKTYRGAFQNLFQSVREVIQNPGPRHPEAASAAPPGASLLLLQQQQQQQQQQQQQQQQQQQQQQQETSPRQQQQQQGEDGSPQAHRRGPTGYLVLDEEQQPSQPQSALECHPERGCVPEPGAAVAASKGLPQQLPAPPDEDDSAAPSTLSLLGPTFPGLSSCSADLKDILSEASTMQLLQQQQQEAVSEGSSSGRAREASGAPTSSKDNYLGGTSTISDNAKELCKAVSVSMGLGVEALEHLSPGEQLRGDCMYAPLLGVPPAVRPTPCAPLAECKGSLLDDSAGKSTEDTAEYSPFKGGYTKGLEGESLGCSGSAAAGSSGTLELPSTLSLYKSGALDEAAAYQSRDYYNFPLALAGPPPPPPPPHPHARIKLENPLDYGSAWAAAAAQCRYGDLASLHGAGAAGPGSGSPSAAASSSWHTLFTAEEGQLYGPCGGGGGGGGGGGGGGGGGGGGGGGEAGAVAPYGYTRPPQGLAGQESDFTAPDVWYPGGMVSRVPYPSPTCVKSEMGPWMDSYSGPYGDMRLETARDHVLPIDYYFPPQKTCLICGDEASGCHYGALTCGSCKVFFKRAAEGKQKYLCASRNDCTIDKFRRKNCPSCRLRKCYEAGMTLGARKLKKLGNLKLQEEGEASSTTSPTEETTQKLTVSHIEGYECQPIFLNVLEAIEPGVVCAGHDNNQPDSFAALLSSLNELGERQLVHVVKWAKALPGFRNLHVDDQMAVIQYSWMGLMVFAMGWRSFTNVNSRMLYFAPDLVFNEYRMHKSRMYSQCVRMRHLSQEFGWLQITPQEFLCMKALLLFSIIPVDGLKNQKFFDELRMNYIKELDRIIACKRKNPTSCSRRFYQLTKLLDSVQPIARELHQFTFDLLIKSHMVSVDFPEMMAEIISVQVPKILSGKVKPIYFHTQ

Biological target: Myc-SPOP wild type (human) (UniProt O43791)
Assay: co-IP; 293T cells transfected with Myc-SPOP and AR WT or deletion mutants 16 hr, 20 µM MG132 for 8 hr; coIP with Myc antibody, WB (Figure 3B)

binding: binds
Substance: AR ΔEGSSS deletion mutant (from UniProt P10275)

These are yes or no findings as the source states them, for the method shown. In cells and extracts the contact can be indirect. Binding can be weak; no strength is given.
